Assay results reported in publication PMC5843596.
These are yes or no findings as the source states them, for the method shown. Binding seen in cells or lysates may run through a third protein. Some results given as binding are weak or reduced against the parent protein; the word gives no strength.

By UniProt entry, the sequences of proteins in these tests, tags left out.
UniProt P51532: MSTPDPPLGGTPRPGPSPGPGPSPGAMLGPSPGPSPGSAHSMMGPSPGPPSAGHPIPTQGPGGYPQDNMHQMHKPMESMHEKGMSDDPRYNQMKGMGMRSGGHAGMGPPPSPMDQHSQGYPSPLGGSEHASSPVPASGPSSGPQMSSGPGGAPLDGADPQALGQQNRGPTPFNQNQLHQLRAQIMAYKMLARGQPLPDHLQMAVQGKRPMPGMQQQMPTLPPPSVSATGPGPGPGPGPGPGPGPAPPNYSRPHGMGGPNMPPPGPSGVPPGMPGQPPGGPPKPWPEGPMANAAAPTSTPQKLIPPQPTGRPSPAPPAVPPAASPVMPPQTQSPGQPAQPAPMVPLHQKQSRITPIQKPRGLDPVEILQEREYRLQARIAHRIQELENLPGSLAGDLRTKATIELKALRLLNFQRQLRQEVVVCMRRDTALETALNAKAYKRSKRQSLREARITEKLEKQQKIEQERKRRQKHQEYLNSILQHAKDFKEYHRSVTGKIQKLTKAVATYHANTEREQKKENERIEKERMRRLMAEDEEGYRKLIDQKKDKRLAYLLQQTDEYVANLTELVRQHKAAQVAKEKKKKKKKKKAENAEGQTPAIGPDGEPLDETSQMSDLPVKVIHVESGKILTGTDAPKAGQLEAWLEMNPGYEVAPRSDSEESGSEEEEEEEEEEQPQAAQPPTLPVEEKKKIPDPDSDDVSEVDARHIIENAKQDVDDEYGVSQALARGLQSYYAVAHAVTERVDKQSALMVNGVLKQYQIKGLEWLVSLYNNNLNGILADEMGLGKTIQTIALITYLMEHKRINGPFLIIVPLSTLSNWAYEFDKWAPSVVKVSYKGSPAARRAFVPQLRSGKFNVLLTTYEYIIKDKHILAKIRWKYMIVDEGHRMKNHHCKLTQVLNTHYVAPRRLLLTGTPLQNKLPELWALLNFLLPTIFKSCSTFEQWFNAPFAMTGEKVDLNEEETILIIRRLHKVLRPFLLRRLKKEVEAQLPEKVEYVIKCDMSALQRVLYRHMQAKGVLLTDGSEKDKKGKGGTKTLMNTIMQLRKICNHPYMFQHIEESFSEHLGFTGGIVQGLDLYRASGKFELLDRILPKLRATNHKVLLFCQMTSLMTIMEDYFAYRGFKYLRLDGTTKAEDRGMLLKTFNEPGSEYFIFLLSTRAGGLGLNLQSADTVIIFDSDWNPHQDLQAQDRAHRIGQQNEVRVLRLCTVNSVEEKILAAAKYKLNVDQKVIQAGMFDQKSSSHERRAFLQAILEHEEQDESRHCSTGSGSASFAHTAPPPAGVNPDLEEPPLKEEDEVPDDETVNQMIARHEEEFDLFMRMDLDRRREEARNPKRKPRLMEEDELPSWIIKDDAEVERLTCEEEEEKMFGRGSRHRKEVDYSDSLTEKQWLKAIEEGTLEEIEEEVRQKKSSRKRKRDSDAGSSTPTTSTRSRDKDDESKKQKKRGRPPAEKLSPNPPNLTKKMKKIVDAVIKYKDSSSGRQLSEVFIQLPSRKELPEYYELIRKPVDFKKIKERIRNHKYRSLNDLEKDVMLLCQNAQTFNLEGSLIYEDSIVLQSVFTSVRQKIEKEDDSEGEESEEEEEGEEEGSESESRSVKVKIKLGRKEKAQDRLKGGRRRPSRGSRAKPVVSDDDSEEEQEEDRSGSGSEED
UniProt Q9UKV0: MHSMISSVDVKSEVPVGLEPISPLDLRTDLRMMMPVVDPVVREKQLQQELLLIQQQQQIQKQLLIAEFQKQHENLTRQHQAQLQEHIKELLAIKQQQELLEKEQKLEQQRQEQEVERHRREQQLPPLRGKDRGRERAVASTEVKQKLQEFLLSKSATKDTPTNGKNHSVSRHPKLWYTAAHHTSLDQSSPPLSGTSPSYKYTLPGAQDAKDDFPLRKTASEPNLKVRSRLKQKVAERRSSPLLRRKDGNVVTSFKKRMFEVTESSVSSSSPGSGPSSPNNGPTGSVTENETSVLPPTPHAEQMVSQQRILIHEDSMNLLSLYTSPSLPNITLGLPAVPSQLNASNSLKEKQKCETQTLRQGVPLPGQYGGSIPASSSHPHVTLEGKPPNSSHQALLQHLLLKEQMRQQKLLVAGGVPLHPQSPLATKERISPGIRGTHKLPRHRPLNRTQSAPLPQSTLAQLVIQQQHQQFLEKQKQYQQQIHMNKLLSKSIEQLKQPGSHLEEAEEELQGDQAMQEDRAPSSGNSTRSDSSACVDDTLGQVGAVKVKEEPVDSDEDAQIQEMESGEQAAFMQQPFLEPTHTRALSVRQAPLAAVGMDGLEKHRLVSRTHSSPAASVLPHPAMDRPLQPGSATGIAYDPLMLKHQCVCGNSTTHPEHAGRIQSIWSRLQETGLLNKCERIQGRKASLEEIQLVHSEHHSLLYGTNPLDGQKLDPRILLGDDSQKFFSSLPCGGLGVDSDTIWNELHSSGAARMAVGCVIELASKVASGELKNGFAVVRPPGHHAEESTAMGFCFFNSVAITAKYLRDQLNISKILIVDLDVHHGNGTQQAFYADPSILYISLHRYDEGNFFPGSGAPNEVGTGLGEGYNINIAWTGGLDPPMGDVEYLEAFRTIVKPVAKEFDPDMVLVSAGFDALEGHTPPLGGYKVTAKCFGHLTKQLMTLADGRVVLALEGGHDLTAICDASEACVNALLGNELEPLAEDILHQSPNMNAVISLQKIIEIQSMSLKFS

Key:
[1] = molecular target: brahma-related gene 1 protein (BRG1) (human (endogenous in primary human aortic VSMCs)) (UniProt P51532); assay: co-IP; sequential co-IP: 200 µg nuclear extract of VSMCs with RNAse inhibitor, treated with turbo DNAse I; first anti-BRG1 on A/G agarose beads, then biotinylated anti-HDAC9 on magnetic streptavidin beads; western blot
[2] = molecular target: brahma-related gene 1 protein (BRG1) (human (endogenous in primary human aortic VSMCs)) (UniProt P51532); assay: co-IP; 40 µg nuclear extract of human VSMCs (control, TGFR2 G357W or ACTA2 R179H expressing); anti-BRG1 antibody (5 µg) overnight at 4 C, Pierce Co-IP kit, A/G magnetic beads; western blot for HDAC9

binding [1]: binds
binding [2]: binds
Substance: histone deacetylase HDAC9 (from UniProt Q9UKV0 1-1011)
